Patent publication US8895744B2, “Alfa-carboline inhibitors of NPM-ALK, RET, and Bcr-Abl” (Universita' Degli Studi di Milano-Bicocca, priority 2008, dated 2014)

Protein sequences, listed by entry. Tags and fused reporters are not part of them. Residues count along the entry.
UniProt Q9UM73, whole entry: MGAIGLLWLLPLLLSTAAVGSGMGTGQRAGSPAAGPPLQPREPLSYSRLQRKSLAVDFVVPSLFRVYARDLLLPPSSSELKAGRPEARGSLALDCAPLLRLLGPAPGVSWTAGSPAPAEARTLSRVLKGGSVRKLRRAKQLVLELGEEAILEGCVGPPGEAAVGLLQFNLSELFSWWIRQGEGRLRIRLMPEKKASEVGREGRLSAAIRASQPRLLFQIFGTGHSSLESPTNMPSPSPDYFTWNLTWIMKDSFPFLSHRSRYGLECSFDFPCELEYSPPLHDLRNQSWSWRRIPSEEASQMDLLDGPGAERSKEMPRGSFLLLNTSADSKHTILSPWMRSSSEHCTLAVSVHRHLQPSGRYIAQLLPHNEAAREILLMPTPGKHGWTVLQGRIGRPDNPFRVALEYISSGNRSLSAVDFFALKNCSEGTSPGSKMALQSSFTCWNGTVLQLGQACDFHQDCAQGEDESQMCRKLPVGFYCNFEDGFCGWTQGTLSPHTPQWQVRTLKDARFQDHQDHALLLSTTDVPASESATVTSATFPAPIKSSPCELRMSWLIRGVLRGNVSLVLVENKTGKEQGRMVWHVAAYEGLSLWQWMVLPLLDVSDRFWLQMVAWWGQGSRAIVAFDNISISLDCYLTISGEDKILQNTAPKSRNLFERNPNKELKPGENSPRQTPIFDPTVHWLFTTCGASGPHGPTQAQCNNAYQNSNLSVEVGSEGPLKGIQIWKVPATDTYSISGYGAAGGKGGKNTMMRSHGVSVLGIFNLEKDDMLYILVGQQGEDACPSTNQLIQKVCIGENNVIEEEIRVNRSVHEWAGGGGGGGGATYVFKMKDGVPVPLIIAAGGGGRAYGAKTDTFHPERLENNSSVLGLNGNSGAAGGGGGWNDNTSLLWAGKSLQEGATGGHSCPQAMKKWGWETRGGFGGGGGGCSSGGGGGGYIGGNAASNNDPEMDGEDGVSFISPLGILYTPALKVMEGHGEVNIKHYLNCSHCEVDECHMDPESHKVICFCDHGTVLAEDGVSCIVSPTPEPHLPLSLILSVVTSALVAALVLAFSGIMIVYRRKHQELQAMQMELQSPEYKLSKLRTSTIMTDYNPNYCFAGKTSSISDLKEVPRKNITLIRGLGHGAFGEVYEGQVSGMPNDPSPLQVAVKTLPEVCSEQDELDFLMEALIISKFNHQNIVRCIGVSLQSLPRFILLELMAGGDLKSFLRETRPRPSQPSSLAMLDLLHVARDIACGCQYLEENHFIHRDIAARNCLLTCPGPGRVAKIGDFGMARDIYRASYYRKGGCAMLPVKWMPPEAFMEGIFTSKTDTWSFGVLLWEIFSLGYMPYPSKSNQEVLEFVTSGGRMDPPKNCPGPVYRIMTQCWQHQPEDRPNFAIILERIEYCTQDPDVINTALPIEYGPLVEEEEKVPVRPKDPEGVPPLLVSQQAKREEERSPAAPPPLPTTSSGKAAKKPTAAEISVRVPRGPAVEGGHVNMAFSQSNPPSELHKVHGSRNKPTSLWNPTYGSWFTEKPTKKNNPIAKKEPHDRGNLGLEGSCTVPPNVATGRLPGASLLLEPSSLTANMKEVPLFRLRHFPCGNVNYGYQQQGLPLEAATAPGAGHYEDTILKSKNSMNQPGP
UniProt Q9UM73, 19-1620 limits assumed: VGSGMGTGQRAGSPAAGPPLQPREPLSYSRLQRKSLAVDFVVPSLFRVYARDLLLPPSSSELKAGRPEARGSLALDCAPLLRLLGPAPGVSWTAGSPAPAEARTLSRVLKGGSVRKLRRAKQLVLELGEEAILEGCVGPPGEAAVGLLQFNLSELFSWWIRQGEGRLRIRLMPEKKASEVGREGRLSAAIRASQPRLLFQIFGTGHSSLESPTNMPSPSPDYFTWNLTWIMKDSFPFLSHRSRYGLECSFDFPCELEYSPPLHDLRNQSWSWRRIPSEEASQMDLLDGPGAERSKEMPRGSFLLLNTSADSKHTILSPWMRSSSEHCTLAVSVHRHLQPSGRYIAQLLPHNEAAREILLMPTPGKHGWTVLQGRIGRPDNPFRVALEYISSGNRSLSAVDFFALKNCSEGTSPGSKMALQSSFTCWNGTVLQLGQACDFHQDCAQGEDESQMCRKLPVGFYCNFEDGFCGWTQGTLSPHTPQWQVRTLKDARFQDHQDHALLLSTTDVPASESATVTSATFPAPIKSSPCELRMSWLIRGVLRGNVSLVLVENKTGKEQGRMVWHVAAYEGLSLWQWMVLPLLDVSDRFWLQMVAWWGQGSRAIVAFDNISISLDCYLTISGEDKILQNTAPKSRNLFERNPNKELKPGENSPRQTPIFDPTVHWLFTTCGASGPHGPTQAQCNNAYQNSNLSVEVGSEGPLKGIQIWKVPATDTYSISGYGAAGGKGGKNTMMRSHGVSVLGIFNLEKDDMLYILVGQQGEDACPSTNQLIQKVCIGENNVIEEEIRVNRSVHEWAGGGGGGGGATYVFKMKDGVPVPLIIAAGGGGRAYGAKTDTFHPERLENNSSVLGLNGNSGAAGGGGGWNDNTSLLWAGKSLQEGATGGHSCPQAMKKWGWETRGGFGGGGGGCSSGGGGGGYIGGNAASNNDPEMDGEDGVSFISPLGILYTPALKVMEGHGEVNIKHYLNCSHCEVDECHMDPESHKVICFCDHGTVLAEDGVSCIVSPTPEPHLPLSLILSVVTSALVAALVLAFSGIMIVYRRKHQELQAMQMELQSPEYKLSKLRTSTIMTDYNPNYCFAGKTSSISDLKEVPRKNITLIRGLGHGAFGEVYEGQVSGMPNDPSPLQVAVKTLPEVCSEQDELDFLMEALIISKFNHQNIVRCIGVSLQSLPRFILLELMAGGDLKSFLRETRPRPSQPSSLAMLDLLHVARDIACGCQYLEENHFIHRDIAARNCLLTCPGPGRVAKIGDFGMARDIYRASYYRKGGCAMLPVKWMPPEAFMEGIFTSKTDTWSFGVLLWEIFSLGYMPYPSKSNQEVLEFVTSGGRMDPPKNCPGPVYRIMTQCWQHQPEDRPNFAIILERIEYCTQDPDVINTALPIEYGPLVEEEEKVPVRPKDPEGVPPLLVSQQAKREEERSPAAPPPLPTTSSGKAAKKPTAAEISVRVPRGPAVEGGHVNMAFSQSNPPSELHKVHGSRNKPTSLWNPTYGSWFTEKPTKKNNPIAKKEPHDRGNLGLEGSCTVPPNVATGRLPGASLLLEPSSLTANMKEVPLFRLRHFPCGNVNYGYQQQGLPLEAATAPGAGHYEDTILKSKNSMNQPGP
UniProt P00519, whole entry T315I: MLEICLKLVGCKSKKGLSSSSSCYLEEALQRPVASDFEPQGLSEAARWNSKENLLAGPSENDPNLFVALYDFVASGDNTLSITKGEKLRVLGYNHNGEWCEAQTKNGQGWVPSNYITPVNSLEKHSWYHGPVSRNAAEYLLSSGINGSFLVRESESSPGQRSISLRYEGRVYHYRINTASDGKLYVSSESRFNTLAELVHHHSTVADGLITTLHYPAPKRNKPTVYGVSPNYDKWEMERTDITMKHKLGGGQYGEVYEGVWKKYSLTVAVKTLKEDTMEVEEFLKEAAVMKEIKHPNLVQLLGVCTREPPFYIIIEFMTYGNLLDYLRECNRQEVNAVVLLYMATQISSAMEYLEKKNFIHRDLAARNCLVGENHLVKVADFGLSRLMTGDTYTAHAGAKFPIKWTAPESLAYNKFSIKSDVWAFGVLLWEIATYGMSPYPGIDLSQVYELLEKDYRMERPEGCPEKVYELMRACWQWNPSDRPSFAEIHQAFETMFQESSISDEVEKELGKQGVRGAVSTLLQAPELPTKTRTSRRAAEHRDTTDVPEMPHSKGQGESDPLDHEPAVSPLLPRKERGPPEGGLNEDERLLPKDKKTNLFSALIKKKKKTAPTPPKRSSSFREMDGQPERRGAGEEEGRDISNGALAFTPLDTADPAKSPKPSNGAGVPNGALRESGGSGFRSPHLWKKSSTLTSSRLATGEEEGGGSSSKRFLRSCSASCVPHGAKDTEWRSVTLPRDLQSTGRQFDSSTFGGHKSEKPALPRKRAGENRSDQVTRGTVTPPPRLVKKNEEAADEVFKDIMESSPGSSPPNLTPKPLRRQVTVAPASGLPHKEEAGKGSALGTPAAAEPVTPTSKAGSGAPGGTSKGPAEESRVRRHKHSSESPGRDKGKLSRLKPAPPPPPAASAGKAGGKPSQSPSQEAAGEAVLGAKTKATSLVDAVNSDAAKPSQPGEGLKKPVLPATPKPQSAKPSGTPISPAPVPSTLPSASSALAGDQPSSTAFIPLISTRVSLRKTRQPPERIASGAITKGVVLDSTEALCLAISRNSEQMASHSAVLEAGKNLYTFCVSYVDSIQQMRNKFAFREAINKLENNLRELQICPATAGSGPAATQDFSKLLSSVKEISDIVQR
UniProt P07949, 29-1114 limits assumed: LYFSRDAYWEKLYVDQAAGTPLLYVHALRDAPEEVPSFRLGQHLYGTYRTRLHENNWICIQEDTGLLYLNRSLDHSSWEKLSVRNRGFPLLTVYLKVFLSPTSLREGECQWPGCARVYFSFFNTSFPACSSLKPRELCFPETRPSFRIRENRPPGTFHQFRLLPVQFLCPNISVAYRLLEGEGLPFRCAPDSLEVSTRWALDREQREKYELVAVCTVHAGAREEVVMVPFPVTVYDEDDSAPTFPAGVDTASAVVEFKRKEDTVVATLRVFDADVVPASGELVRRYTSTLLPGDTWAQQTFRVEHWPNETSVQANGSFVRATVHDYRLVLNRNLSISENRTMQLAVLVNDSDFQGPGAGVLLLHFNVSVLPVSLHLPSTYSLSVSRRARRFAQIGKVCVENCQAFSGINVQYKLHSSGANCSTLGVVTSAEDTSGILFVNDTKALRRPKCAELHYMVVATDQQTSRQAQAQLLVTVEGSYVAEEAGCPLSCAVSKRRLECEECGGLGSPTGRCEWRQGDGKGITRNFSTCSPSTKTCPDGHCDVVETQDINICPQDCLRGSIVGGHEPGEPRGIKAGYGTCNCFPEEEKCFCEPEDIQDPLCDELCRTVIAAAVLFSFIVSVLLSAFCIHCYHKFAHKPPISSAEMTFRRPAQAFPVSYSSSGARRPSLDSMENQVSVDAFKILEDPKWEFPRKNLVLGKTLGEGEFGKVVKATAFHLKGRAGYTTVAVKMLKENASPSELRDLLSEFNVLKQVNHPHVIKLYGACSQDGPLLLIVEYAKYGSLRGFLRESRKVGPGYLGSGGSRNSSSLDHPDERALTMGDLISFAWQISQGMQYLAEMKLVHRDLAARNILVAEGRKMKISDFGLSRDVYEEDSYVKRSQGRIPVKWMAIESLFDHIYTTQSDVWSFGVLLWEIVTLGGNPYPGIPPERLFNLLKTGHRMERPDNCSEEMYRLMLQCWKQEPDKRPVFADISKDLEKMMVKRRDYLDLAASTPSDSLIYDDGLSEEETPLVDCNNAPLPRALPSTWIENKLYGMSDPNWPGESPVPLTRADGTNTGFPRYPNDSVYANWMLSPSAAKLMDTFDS

Columns and labels:
[1] = tested on: NPM/ALK positive SUDHL-1 cells; assay: Tritiated thymidine uptake cell proliferation assay, SUDHL-1; conditions: read-out: SUDHL (NPM/ALK+) IC50; 3[H]-thymidine uptake, 72 h
Experimental: (§1) Inhibition of the proliferation of NPM/ALK positive cells
(§2) Method: Tritiated Thymidine Uptake Cell Proliferation Assay
(§3) The following procedure was used with parent untransformed BaF3 cells, BaF3 cells transformed with the oncogenic fusion protein NPM/ALK, NPM/ALK positive SUDHL-1 cells, ALK-negative U937 cells, NPM/ALK positive KARPAS-299 cells. The parent untransformed BaF3 cells and Alk-negative U937 cells are used as controls. Cells were seeded in U-bottomed 96-well plates at 10 000 cells/well in a volume of 100 μL in supplemented medium. In the case of the parent untransformed BaF3 cells, the medium was supplemented with IL-3. Serial dilutions of inhibitors were added to the appropriate wells and volumes adjusted to 200 μL. Controls were treated with the equivalent volume of vehicle, DMSO, alone. Plates were incubated at 37° C. for 72 h. ^3[H]-thymidine (1 μCi/well) was added for the last 16 h of incubation. Cells were harvested on to paper filters and ^3[H]-thymidine incorporation was measured using a β scintillation counter (1430 MicroBeta, Wallac, Turku, Finland). The 50% inhibitory concentration (IC50) was defined as the concentration of inhibitor, expressed in micromolar, that gave a 50% decrease in ^3[H]-thymidine uptake compared with controls.

ALK-negative U937 cells = assay: Tritiated thymidine uptake cell proliferation assay, U937 (control); conditions: read-out: U937 (ALK−) IC50; 3[H]-thymidine uptake, 72 h
Experimental: as §2
as §3, with “The 50% inhibitory concentration (IC50) was defined as the concentration of inhibitor, expressed in micromolar, that gave a 50% decrease in ^3[H]-thymidine uptake compared with controls.” left out
(§4) The following procedure was used with parent untransformed BaF3 cells, BaF3 cells transformed with the oncogenic fusion protein RET-PTC2, or RET-negative 11937 cells. […] Cells were harvested on to paper filters and ^3[H]-thymidine incorporation was measured using a β scintillation counter (1430 MicroBeta, Wallac, Turku, Finland). […]

Recombinant ALK kinase = Recombinant ALK kinase (Homo sapiens, UniProt Q9UM73); assay: ALK kinase inhibitory activity, ELISA-based in vitro kinase assay; format: biochemical; conditions: read-out: ALK IC50, purified rALK, 0.3 mM ATP
Experimental: 36. Alk Kinase Inhibitory Activity
Method: ELISA-Based In Vitro Kinase Assay
Recombinant ALK kinase was expressed in Sf9 insect cells using the pBlueBacHis2C baculovirus vector system and purified using an anion exchange Fast Flow Q-sepharose column (Amersham-Pharmacia Biotech) followed by HiTrap™-nickel affinity column (Amersham-Pharmacia Biotech). Purified ALK protein was used to screen inhibitors in the ELISA-based kinase assay. A Nunc Immuno 96 well plate was incubated overnight at 37° C. with coating solution (125 μL/well) containing ALK peptide substrate ([…]) (SEQ ID NO: 1) at various concentrations in PBS. Wells were then washed with 200 μL of wash buffer (PBS-Tween 0.05%) and left to dry for at least 2 h at 37° C. The kinase reaction was performed in the presence of 50 mM Tris pH 7.5, 5 mM MnCl2, 5 mM MgCl2, 0.3 mM ATP and purified rALK in a total volume of 100 μL/well at 30° C. for 15 min. For inhibitor testing the reaction mix was preincubated with the inhibitor or solvent control for 10 min at room temperature before transferring to the ELISA plate. After the reaction wells were washed 5 times with 200 μL of wash buffer. Phosphorylated peptide was detected using 100 μL/well of a mouse monoclonal anti-phosphotyrosine antibody (clone 4G10 Upstate Biotech Ltd) diluted 1:2000 in PBS+4% BSA. After 30 min incubation at room temperature the antibody was removed and wells were washed as described above. 100 μL of a secondary antibody (anti-mouse IgG, Horseradish Peroxidase linked whole antibody, Amersham Pharmacia Biotech) diluted 1:1000 in PBS+4% BSA was added to each well and the plate was incubated again for 30 min at room temperature before washing as above. The plate was developed using 100 μL/well TMB Substrate Solution (Endogen) and the reaction was stopped by adding an equiv.ual volume of H2SO4 0.36 M. Finally, the absorbance was read at 450 nm using an Ultrospec® 300 spectrophotometer (Amersham-Pharmacia Biotech). The concentration of the test solution showing 50% inhibition as compared with the control was expressed as IC50 (μM).

[2] = target: BaF3 cells transformed with the oncogenic fusion protein NPM/ALK (Homo sapiens, UniProt Q9UM73); assay: Tritiated thymidine uptake cell proliferation assay, BaF3 NPM/ALK; conditions: read-out: BaF NPM/ALK IC50; 3[H]-thymidine uptake, 72 h
Experimental: as §1, §2, §3

[3] = tested on: parent untransformed BaF3 cells; assay: Tritiated thymidine uptake cell proliferation assay, parental BaF3 (control); conditions: read-out: BaF parental IC50; 3[H]-thymidine uptake, 72 h, medium with IL-3
Experimental: as §2, §3
The following procedure was used with parent untransformed BaF3 cells, BaF3 cells transformed with the oncogenic fusion protein bcr-abl, Abl-negative U937 cells, or Bcr-abl positive LAMA-84 cells. The parent untransformed BaF3 cells and Abl-negative U937 cells are used as controls. Cells were seeded in U-bottomed 96-well plates at 10 000 cells/well in a volume of 100 μL in supplemented medium. […] Cells were harvested on to paper filters and ^3[H]-thymidine incorporation was measured using a β scintillation counter (1430 MicroBeta, Wallac, Turku, Finland). […]
as §4

[4] = target: Recombinant Abl T315I protein (Homo sapiens, UniProt P00519, T315I); assay: Abl T315I mutant kinase inhibitory activity, ELISA-based in vitro kinase assay; format: biochemical; conditions: read-out: ABL IC50, purified Abl T315I, 0.3 mM ATP
Experimental: (§5) Recombinant ALK kinase was expressed in Sf9 insect cells using the pBlueBacHis2C baculovirus vector system and purified using an anion exchange Fast Flow Q-sepharose column (Amersham-Pharmacia Biotech) followed by HiTrap™-nickel affinity column (Amersham-Pharmacia Biotech). Purified ALK protein was used to screen inhibitors in the ELISA-based kinase assay. A Nunc Immuno 96 well plate was incubated overnight at 37° C. with coating solution (125 μL/well) containing ALK peptide substrate ([…]) (SEQ ID NO: 1) at various concentrations in PBS. Wells were then washed with 200 μL of wash buffer (PBS-Tween 0.05%) and left to dry for at least 2 h at 37° C. The kinase reaction was performed in the presence of 50 mM Tris pH 7.5, 5 mM MnCl2, 5 mM MgCl2, 0.3 mM ATP and purified rALK in a total volume of 100 μL/well at 30° C. for 15 min. […] Phosphorylated peptide was detected using 100 μL/well of a mouse monoclonal anti-phosphotyrosine antibody (clone 4G10 Upstate Biotech Ltd) diluted 1:2000 in PBS+4% BSA. […] The plate was developed using 100 μL/well TMB Substrate Solution (Endogen) and the reaction was stopped by adding an equiv.ual volume of H2SO4 0.36 M. Finally, the absorbance was read at 450 nm using an Ultrospec® 300 spectrophotometer (Amersham-Pharmacia Biotech). […]

Recombinant Ret protein = Recombinant Ret protein (Homo sapiens, UniProt P07949); assay: RET kinase inhibitory activity, ELISA-based in vitro kinase assay; format: biochemical; conditions: read-out: RET IC50, purified Ret, 0.3 mM ATP
Experimental: as §5

Row | IC50 (Recombinant ALK kinase) | GI50 [2] | IC50 [4] | IC50 (Recombinant Ret protein) | SMILES | IC50 [1] | IC50 (ALK-negative U937 cells) | IC50 [3]
1 | – | 5.3 µM | 17 µM | – | O=C(CSCCCO)c1ccc2[nH]c3ncc(Cl)cc3c2c1 | – | – | 42 µM
2 | 0.8 µM | > 13 µM | > 25 µM | 2 µM | COc1ccc(-c2ccc3[nH]c4ncc(Cl)cc4c3c2)cc1 | – | – | > 13 µM
3 | > 100 µM | – | – | – | COc1ccc(-c2ccc3[nH]c4ncc(/C=C/c5cccc(F)c5)cc4c3c2)cc1 | – | – | –

Row | SMILES | IC50 (Recombinant ALK kinase) | GI50 [2] | IC50 [4] | IC50 (Recombinant Ret protein) | IC50 [1] | IC50 (ALK-negative U937 cells) | IC50 [3]
4 | O=S(=O)(c1ccccc1)n1c2ccc(-c3ccc(O)cc3)cc2c2cc(Cl)cnc21 | 19 µM | 1.2 µM | – | – | 0.07 µM | 0.37 µM | 0.94 µM

The structures given here were assigned with low confidence; some may be wrong.
